In all, about 1,100 compounds were measured (“Wnt reporter firefly/Renilla luciferase ratio relative to plate median”: median about 1.1, highest 2% from about 1.6 on). Only a part is listed here, and it is no random draw.
System: HEK293T (UBE3A T485A transfected, BAR Wnt reporter)
Test: Wnt reporter firefly/Renilla luciferase ratio relative to plate median (fold (linear ratio)); higher = more Wnt/beta-catenin reporter activation
Settings: 24 h
How it was run: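 HEK293T cells were seeded at 4500 cells/well in white 384-well plates and grown in DMEM with 10% FBS at 37°C and 5% CO2. The cells were transfected using Fugene 6 with a BAR firefly luciferase Wnt reporter, TK-Renilla and an expression plasmid, and four hours later robots added the chemicals at 0.01–100 uM for 24 h before a Dual-Glo luciferase readout. Wnt activity was taken as the firefly/Renilla ratio and cell health as raw Renilla, each median-centred per plate. Values are averages of four biological replicates.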

Row | SMILES | Wnt reporter firefly/Renilla luciferase ratio (concentration: 0.1 uM) | Wnt reporter firefly/Renilla luciferase ratio (concentration: 1 uM) | Wnt reporter firefly/Renilla luciferase ratio (concentration: 10 uM) | Wnt reporter firefly/Renilla luciferase ratio (concentration: 0.01 uM) | Wnt reporter firefly/Renilla luciferase ratio (concentration: 100 uM)
1 | Nc1ccc(Cl)cc1N [4-Chloro-1,2-diaminobenzene] | 1.1 | 1.03 | 0.852 |  | 
2 | CCOC(=O)C(Cl)Cc1cc(-n2nc(C)n(C(F)F)c2=O)c(F)cc1Cl (stereo unspecified) [Carfentrazone-ethyl] | 0.973 | 0.982 | 0.945 | 1.07 | 1.28
3 | ClC1=C(Cl)C2(Cl)C3C4CC(C5OC45)C3C1(Cl)C2(Cl)Cl (stereo unspecified) [Dieldrin] | 0.889 | 0.963 | 1.08 |  | 1.16
4 | ClC1=C(Cl)C2(Cl)C3C4CC(C5OC45)C3C1(Cl)C2(Cl)Cl (stereo unspecified) [Endrin] | 1.07 | 0.855 | 1.12 |  | 0.323
5 | Oc1ccc(Cl)cc1Cc1ccccc1 [Clorophene] | 1.05 | 1.07 | 0.943 | 0.901 | 
6 | COC(=O)N(C(=O)N1CO[C@@]2(C(=O)OC)Cc3cc(Cl)ccc3C2=N1)c1ccc(OC(F)(F)F)cc1 [Indoxacarb] | 0.96 | 1.2 | 0.895 | 0.92 | 0.242
7 | CCOP(=S)(OCC)Oc1cc(C)nc(C(C)C)n1 [Diazinon] | 0.815 | 1.01 | 1.25 | 0.789 | 1.14
8 | CCOP(=S)(OCC)Oc1ccc2c(C)c(Cl)c(=O)oc2c1 [Coumaphos] | 0.808 | 0.989 | 1.05 | 0.839 | 1.32
9 | NC(=O)[O-].[NH4+] [Ammonium carbamate] | 0.817 | 0.94 | 0.934 |  | 1.31
10 | N#CC(CCc1ccc(Cl)cc1)(Cn1cncn1)c1ccccc1 (stereo unspecified) [Fenbuconazole] | 1.01 | 1.03 | 0.614 | 1.07 | 0.347
11 | COP(=O)(NC(C)=O)SC (stereo unspecified) [Acephate] | 1.19 | 1.03 | 1.08 | 1.49 | 1.16
12 | COP(=O)(OC)OC=C(Cl)Cl [Dichlorvos] | 1.67 |  |  |  | 
13 | CCN(CC)c1nc(C)cc(OP(=S)(OC)OC)n1 [Pirimiphos-methyl] | 1.12 | 1.11 | 1.23 | 1.29 | 1.5
14 | O=C(N[C@H]1CN2CCC1CC2)c1ccc2c(c1)OCCO2 | 1 | 1.05 | 1.15 |  | 1.12
15 | Nc1ccc(/N=N/c2ccccc2)cc1 [4-Aminoazobenzene] | 1.33 | 1.25 | 1.37 |  | 1.28
16 | CCCCC(CC)COC(=O)c1ccc(C(=O)OCC(CC)CCCC)cc1 (stereo unspecified) [Bis(2-ethylhexyl) terephthalate] | 1.01 | 1.03 | 0.825 |  | 1.26
17 | O=C(O)C(Cl)Cl [Dichloroacetic acid] | 1.04 | 0.862 | 1.1 |  | 1.33
18 | COP(=O)(OC)C(O)C(Cl)(Cl)Cl (stereo unspecified) [Trichlorfon] | 1.1 | 1.06 | 1.1 | 1.06 | 0.494
19 | CCCCNC(=O)n1c(NC(=O)OC)nc2ccccc21 [Benomyl] | 0.957 | 0.996 | 0.468 | 1.07 | 0.876
20 | CNC(=O)Oc1cccc2c1OC(C)(C)C2 [Carbofuran] | 0.917 | 0.916 | 0.727 |  | 0.571
21 | OCCOCCO [Diethylene glycol] | 0.95 | 1.26 | 1.09 |  | 1.15

Row | SMILES | Wnt reporter firefly/Renilla luciferase ratio (concentration: 0.1 uM) | Wnt reporter firefly/Renilla luciferase ratio (concentration: 1 uM) | Wnt reporter firefly/Renilla luciferase ratio (concentration: 10 uM) | Wnt reporter firefly/Renilla luciferase ratio (concentration: 0.01 uM) | Wnt reporter firefly/Renilla luciferase ratio (concentration: 100 uM)
22 | CCCCCCCCCC(CC)c1ccc(S(=O)(=O)O)cc1.OCCN(CCO)CCO (stereo unspecified) [Dodecylbenzene sulfonate triethanolamine(1:1)] | 1.13 | 1.29 | 1.13 |  | 1.01
23 | c1cc2ccc3cccc4ccc(c1)c2c34 [Pyrene] | 1.09 | 0.96 | 1.05 |  | 0.354
24 | CN(C)N=O [N-Nitrosodimethylamine] | 1.12 | 1.34 | 1.34 |  | 1.25
25 | COc1cc(-c2ccc(N)c(OC)c2)ccc1N.Cl.Cl [3,3'-Dimethoxybenzidine dihydrochloride] | 1.1 | 1.04 | 0.854 |  | 0.257
26 | Cc1cc(C2CC2)nc(Nc2ccccc2)n1 [Cyprodinil] | 1.28 | 1.08 | 1.22 | 1.41 | 0.43
27 | C#CCOS(=O)OC1CCCCC1Oc1ccc(C(C)(C)C)cc1 (stereo unspecified) [Propargite] | 1.16 | 1.02 | 0.934 | 1.24 | 0.259
28 | COc1cc(-c2ccc(N)c(OC)c2)ccc1N [3,3'-Dimethoxybenzidine] | 1.2 | 0.858 | 0.899 |  | 0.321
29 | CC1(c2ccc(Oc3ccccc3)cc2)OC(=O)N(Nc2ccccc2)C1=O (stereo unspecified) [Famoxadone] | 0.933 | 1.05 | 0.214 | 0.995 | 0.815
30 | Brc1ccc(Oc2ccccc2)cc1 [p-Bromodiphenyl ether] | 1.22 | 1.12 | 1.32 |  | 1.36
31 | C=CC(=O)NCNC(=O)C=C [N,N'-Methylenebisacrylamide] | 0.951 | 0.999 | 1.03 |  | 1.21
32 | CCCSP(=O)(OCC)Oc1ccc(Br)cc1Cl (stereo unspecified) [Profenofos] | 1.01 | 1.09 | 0.988 | 0.829 | 0.904
33 | Clc1ccc(Cl)c(Cl)c1 [1,2,4-Trichlorobenzene] | 0.911 | 0.886 | 1.04 |  | 1.57
34 | C[C@]12CCC(=O)C[C@@H]1CC[C@@H]1[C@@H]2CC[C@]2(C)[C@@H](O)CC[C@@H]12 [5alpha-Dihydrotestosterone] | 1.38 | 1.03 | 0.999 |  | 0.222
35 | CCCCOC(=O)c1ccccc1C(=O)OCc1ccccc1 [Benzyl butyl phthalate] | 0.687 | 0.844 | 0.883 |  | 1.34
36 | Cc1[nH]c(=O)n(C(C)(C)C)c(=O)c1Cl [Terbacil] | 1.44 | 1.21 | 1.49 | 1.31 | 1.35
37 | C=CCC1=C(C)C(OC(=O)C2C(C=C(C)C)C2(C)C)CC1=O (stereo unspecified) [Allethrin] | 1.06 | 1.01 | 1.08 | 0.989 | 0.868
38 | NC1=NC(O)C2C3OC4(O)OC(C(O)C2(N1)C4O)C3(O)CO (stereo unspecified) [Tetrodotoxin (TTX)] | 1.12 | 1.09 | 1.06 | 1.05 | 1.8
39 | C=CCOC(=O)c1ccccc1C(=O)OCC=C [Diallyl phthalate] | 1.17 | 1.04 | 1.22 |  | 1.09
40 | CC1(C)C(C=C(Cl)Cl)C1C(=O)OC(C#N)c1ccc(F)c(Oc2ccccc2)c1 (stereo unspecified) [Cyfluthrin] | 0.838 | 1.05 | 1.05 | 1.1 | 0.895
41 | CCOC(=O)CC(SP(=S)(OC)OC)C(=O)OCC (stereo unspecified) [Malathion] | 1.23 | 0.999 | 1.03 | 1.46 | 1.19
42 | CC(O)CCO (stereo unspecified) [1,3-Butanediol] | 0.964 | 0.988 | 1.14 |  | 1.44

Row | SMILES | Wnt reporter firefly/Renilla luciferase ratio (concentration: 0.1 uM) | Wnt reporter firefly/Renilla luciferase ratio (concentration: 1 uM) | Wnt reporter firefly/Renilla luciferase ratio (concentration: 10 uM) | Wnt reporter firefly/Renilla luciferase ratio (concentration: 0.01 uM) | Wnt reporter firefly/Renilla luciferase ratio (concentration: 100 uM)
43 | CCc1cccc(CC)c1N [2,6-Diethylaniline] | 0.758 | 0.735 | 0.779 |  | 0.805
44 | O=C(O)CCCOc1ccc(Cl)cc1Cl | 0.903 | 1 | 0.867 | 0.684 | 0.758
45 | CC(C)N(C(=O)COc1nnc(C(F)(F)F)s1)c1ccc(F)cc1 [Flufenacet] | 0.746 | 0.898 | 0.605 | 0.973 | 0.254
46 | CC1(C)C(C=C(Cl)Cl)C1C(=O)OC(C#N)c1cccc(Oc2ccccc2)c1 (stereo unspecified) [Cypermethrin] | 1.14 | 1.06 | 0.991 | 1.02 | 0.601
47 | CCC(C)C1OC2(C=CC1C)CC1CC(CC=C(C)C(OC3CC(OC)C(OC4CC(OC)C(O)C(C)O4)C(C)O3)C(C)C=CC=C3COC4C(O)C(C)=CC(C(=O)O1)C34O)O2 (stereo unspecified) [Abamectin] | 1.18 | 1.23 | 0.533 | 1.17 | 
48 | CCC(CC)Nc1c([N+](=O)[O-])cc(C)c(C)c1[N+](=O)[O-] [Pendimethalin] | 0.866 | 0.946 | 0.92 | 0.882 | 1.08
49 | Nc1cnn(-c2ccccc2)c(=O)c1Cl [Chloridazon] | 0.892 | 0.898 | 0.72 | 0.94 | 1.04
50 | [Na+].[O-][n+]1ccccc1[S-] [Sodium (2-pyridylthio)-N-oxide] | 1.19 | 1 | 1 |  | 
51 | Clc1ccc(C(c2ccc(Cl)cc2)C(Cl)(Cl)Cl)cc1 | 1.31 | 1.31 | 1.15 |  | 1.34
52 | Nc1ccc2ccccc2c1 [2-Naphthylamine] | 0.991 | 0.869 | 0.998 |  | 0.629
53 | CCC(C)(C)c1ccc(O)c(C(C)(C)CC)c1 [2,4-Bis(2-methylbutan-2-yl)phenol] | 1.09 | 1.21 | 0.893 |  | 1.26
54 | CC(C1CC1)C(O)(Cn1cncn1)c1ccc(Cl)cc1 (stereo unspecified) [Cyproconazole] | 0.976 | 0.917 | 1.03 | 0.848 | 0.259
55 | CC(C)COC(=O)c1ccccc1C(=O)OCC(C)C [Diisobutyl phthalate] | 1.08 | 1.09 | 0.977 |  | 1.14
56 | CC(C)(C)OOC(=O)c1ccccc1 [tert-Butyl perbenzoate] | 1.06 | 0.994 | 1.24 |  | 0.688
57 | O=C(N[C@H]1CN2CCC1CC2)c1cc2ccoc2cn1 | 1.08 | 0.943 | 0.877 |  | 0.842
58 | CC(C)(C)c1ccc(CCOc2ncnc3ccccc23)cc1 [Fenazaquin] | 0.768 | 0.93 | 0.155 | 0.818 | 0.51
59 | Nc1c(Cl)c(F)nc(OCC(=O)O)c1Cl [Fluroxypyr] | 0.91 | 0.994 | 0.96 | 0.709 | 1.46
60 | Oc1ccccc1-c1ccccc1 [2-Phenylphenol] | 0.805 | 0.923 | 0.966 | 0.842 | 0.723
61 | CCOP(=S)(OCC)SCSC(C)(C)C [Terbufos] | 1.28 | 1.01 | 1.16 |  | 1.27
62 | Cc1cnc(C2=NC(=O)C(C)(C(C)C)N2)c(C(=O)O)c1 (stereo unspecified) [Imazapic] | 0.816 | 0.93 | 0.839 | 0.825 | 1.3

Single entries from above.
Under Wnt reporter firefly/Renilla luciferase ratio (concentration: 100 uM), CC1(C)C(C=C(Cl)Cl)C1C(=O)OC(C#N)c1cccc(Oc2ccccc2)c1 (stereo unspecified) [Cypermethrin] shows 0.601
Under Wnt reporter firefly/Renilla luciferase ratio (concentration: 10 uM), CCC(CC)Nc1c([N+](=O)[O-])cc(C)c(C)c1[N+](=O)[O-] [Pendimethalin] shows 0.92
Under Wnt reporter firefly/Renilla luciferase ratio (concentration: 10 uM), CCOP(=S)(OCC)SCSC(C)(C)C [Terbufos] shows 1.16
Under Wnt reporter firefly/Renilla luciferase ratio (concentration: 0.01 uM), Nc1c(Cl)c(F)nc(OCC(=O)O)c1Cl [Fluroxypyr] shows 0.709

Source: the supplement of paper PMC9254222
